To fix the notation:
B1: VHH CLONE 116 (VHH)
VHH: EVQLVESGGGLVQPGGSLRLSCTASGSILKIYTMDWYRQAPGKQRDLVATVSSRGDTDYTDSVKGRFTISRDDAKNTAYLQMSSLKPEDTAVYYCNFYIQSRTAPFNDYWGQGTQVTVSS
notes: The entry includes the C-terminal 6xHis and HA tags
B2: VHH CLONE 108 (VHH)
VHH: EVQLVESGGGLVQPGGSLRLSCEATGNFDDRGIGWFRQAPGKEREGIACITTRGRTHYAESVEGRFTISTDIANNAVYLQMNSLKPEDTAVYYCAKAIRLTTDRTQCVAFPGVSWGRGTQVTVSS
notes: as for B1
B3: VHH CLONE 320 (VHH)
VHH: DVQLQASGGGLVQPGGSLRLSCATSTSVFSITTLGWYRQAPGKQRELVASMKRGGDTNYADSVKGRFTISRDNARNTVFLQMNNLTTEDTAVYYCNAAILAYTGAVTNYWGQGTQVTVSS
notes: The entry includes the C-terminal 6xHis and HA tags; also called nanobody 320
B4: VHH CLONE 213 (VHH)
VHH: EVQLVESVGGLVQPGGSLRLSCVASGNIGDIYTMGWYRQAPGKQRELVATVGDGGLTNFVDSVKGRFTISRDKSKGTVSLEMNSLKPEDTAVYYCNADVRIGPTGLRVYWGQGTQVTVSS
notes: as for B1
B5: VHH CLONE 302 (VHH)
VHH: B4 VHH with E1Q, Q3K, V5Q, V8G
notes: as for B1
B6: VHH CLONE 103 (VHH)
VHH: EVQLMESAGGLVRPGGSLRLSCVASGSIGDIYSMGWYRQAPGKQRELVATVGAGGLTDYGDSVLGRFTISRDKTKGTVSLEMNSLKPEDTAVYYCNADVSIGPTGLRVYWGQGTQVTVSS
notes: as for B1
B7: VHH CLONE 220 (VHH)
VHH: B4 VHH with V8G, D30N, T50A, D53A, G55E, F59Y, R100S
notes: The entry includes the C-terminal 6xHis and HA tags; also called nanobody 220
B8: VHH CLONE 205 (VHH)
VHH: DVQLQASGGGLVQPGGSLRLSCAATGSTDRIAFMGWYRQAPGKLRELVAGITSDGRTNYADDVDVSGRFTISRDSAKNMVYLQMNSLKPEDTAVYYCNADITLAMGGLRVYWGQGTQVTVSS
notes: as for B1

Changes are numbered by the printed parent chain. No constants are given. Whether binding was seen depends on the method and setting. Some entries that bind do so weakly or less than the wild type.

The target in the assay is cystic fibrosis transmembrane conductance regulator (CFTR) inhibitory factor (Cif) (Pseudomonas aeruginosa). The assay is described as follows: sandwich ELISA, pAb capture, VHH detection. For orientation: An ELISA detects its analyte on a solid surface through an enzyme-linked reagent.
Regarding B1, the binding entry was “binds”.

Take B2: the binding entry is reported as “binds”.

For the molecule B3, the binding entry was “binds”.

As to B4, the binding entry is listed as “binds”.

For B5, the binding entry was “binds”.

Regarding B6, the binding result was “binds”.

For the molecule B7, the binding result is on record as “binds”.

With B8, the binding result is listed as “binds”.

Values taken from patent US20220169708A1 (University of California, published 2022).
